In paper PMC8384837:
Changes are numbered by the printed parent chain. This is one part of the list. For some assays here: At the low end of the ranking the order means little.

Molecular target: T1, PUM1 PUF domain R6-RVT N1043R + Y1044V + Q1047T (UniProt Q14671)
T1 sequence: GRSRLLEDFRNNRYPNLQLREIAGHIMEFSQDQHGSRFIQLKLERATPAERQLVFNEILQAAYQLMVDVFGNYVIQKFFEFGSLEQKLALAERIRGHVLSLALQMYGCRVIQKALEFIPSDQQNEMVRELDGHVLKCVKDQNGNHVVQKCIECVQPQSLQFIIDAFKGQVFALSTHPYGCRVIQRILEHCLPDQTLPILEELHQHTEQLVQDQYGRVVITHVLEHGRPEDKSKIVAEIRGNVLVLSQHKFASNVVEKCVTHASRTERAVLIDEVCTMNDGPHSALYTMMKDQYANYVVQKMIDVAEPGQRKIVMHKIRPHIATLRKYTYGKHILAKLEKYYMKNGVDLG
Conditions: yeast three-hybrid, YBZ-1, SC-Leu-His + 0.5 mM 3-AT, 4 days

| Sequence | binding signal (log2 enrichment (interaction score)) |
| --- | --- |
| GGCUAGAACUAGUGGAUCCCCCGGCGCCCGGCGGCUCGAGCCCGGGUAAGUGUAAAUAGUCUGCAUGCCGCCGGGCGCCAUGCCUGCAGGUCGACUCUAGAAAACAUG | < -9.42 |
| GGCUAGAACUAGUGGAUCCCCCGGCGCCCGGCGGCUCGAGCCCGGGUAAGUGGAAAUAGUCUGCAUGCCGCCGGGCGCCAUGCCUGCAGGUCGACUCUAGAAAACAUG | < -8.08 |
| GGCUAGAACUAGUGGAUCCCCCGGCGCCCGGCGGCUCGAGCCCGGGUAAGUGAAAAUAGUCUGCAUGCCGCCGGGCGCCAUGCCUGCAGGUCGACUCUAGAAAACAUG | < -9.2 |

Molecular target: T2, PUM1 PUF domain R6-SWD R7-NPG N1043S + Y1044W + Q1047D + S1079N + N1080P + E1083G (Homo sapiens) (UniProt Q14671)
T2 sequence: T1 sequence with R216S, V217W, T220D, S252N, N253P, E256G
Conditions: yeast three-hybrid, YBZ-1, SC-Leu-His + 0.5 mM 3-AT, 4 days

| Sequence | binding signal (log2 enrichment (interaction score)) |
| --- | --- |
| GGCUAGAACUAGUGGAUCCCCCGGCGCCCGGCGGCUCGAGCCCGGGUAAGUUUACGAGGUCUGCAUGCCGCCGGGCGCCAUGCCUGCAGGUCGACUCUAGAAAACAUG | -0.27 |
| GGCUAGAACUAGUGGAUCCCCCGGCGCCCGGCGGCUCGAGCCCGGGUAAGUUUAAGAAGUCUGCAUGCCGCCGGGCGCCAUGCCUGCAGGUCGACUCUAGAAAACAUG | -0.54 |
| GGCUAGAACUAGUGGAUCCCCCGGCGCCCGGCGGCUCGAGCCCGGGUAAGUUGACGUCGUCUGCAUGCCGCCGGGCGCCAUGCCUGCAGGUCGACUCUAGAAAACAUG | -0.55 |
| GGCUAGAACUAGUGGAUCCCCCGGCGCCCGGCGGCUCGAGCCCGGGUAAGUCGAAGUAGUCUGCAUGCCGCCGGGCGCCAUGCCUGCAGGUCGACUCUAGAAAACAUG | -1.84 |
| GGCUAGAACUAGUGGAUCCCCCGGCGCCCGGCGGCUCGAGCCCGGGUAAGGUUACGUAGUCUGCAUGCCGCCGGGCGCCAUGCCUGCAGGUCGACUCUAGAAAACAUG | -1.66 |
